The record followed here is patent publication US20050053990.

The exact form of at least one protein or probe is not confirmed. No signal at the amounts used counts as a negative.

One series has as its system AvaII. Description: enzyme reaction in vitro. Conditions: purified native protein, protein details: New England Biolabs restriction endonuclease.
The next series deals with Cac8I. Description: enzyme reaction in vitro. Conditions: purified native protein, protein details: New England Biolabs restriction endonuclease.

With “TTTTTTCATGACGATGCAGTCGACTCGGTCCGCTTAGCTTT [B ssDNA]”, the “activity on this sequence” value in the series with AvaII (ssDNA not cleaved, label: 3'-Fam, single-stranded DNA) is “not active”.

“TAAAGGCGCGCCCGCATGCTTTA (double strand) [H/L DNA duplex]”: the “activity on this sequence” value in the series with Cac8I (dsDNA cleaved, NEBuffer 3, label: 5'-FAM on both strands) is “active”. As for “UAAAGGCGCGCCCGCAUGCUUUA / UAAAGCAUGCGGGCGCGCCUUUA [I/J RNA duplex]”, in the series with Cac8I (dsRNA not cleaved, label: 5'-FAM on both strands), the “activity on this sequence” value is “not active”.

“AAAGCTAAGCGGACCGAGTCGACTGCATCGTCATGAAAAAA (double strand) [D/F methylated DNA duplex]”: the “activity on this sequence” value in the series with AvaII (bottom strand TTTTTTCATGA(m5C)GATGCAGTCG(n6A)CTCGGTC(m5C)GC..: 5mC and N6-methyl-A, cleavage blocked by methylation of final C, label: 3'-Fam, variant of B/D DNA duplex) is given as “not active”. With “AAAGCUAAGCGGACCGAGUCGACUGCAUCGUCAUGAAAAAA / TTTTTTCATGACGATGCAGTCGACTCGGTCCGCTTAGCTTT [G/F methylated RNA/DNA duplex]”, the “activity on this sequence” value in the series with AvaII (DNA strand TTTTTTCATGA(m5C)GATGCAGTCG(n6A)CTCGGTC(m5C)GC..: 5mC and N6-methyl-A, cleavage blocked by methylation of final C in DNA strand, label: 5'-Fam RNA, 3'-Fam DNA, DNA:RNA hybrid, variant of A/B RNA/DNA duplex) is listed as “not active”. As to “UAAAGGCGCGCCCGCAUGCUUUA / TAAAGCATGCGGGCGCGCCTTTA [I/K RNA/DNA duplex]”, in the series with Cac8I (RNA strand cleaved, NEBuffer 3, label: 5'-FAM on RNA strand, DNA:RNA hybrid), the “activity on this sequence” value is on record as “active”. In the case of “AAAGCUAAGCGGACCGAGUCGACUGCAUCGUCAUGAAAAAA / TTTTTTCATGACGATGCAGTCGACTCGGTCCGCTTAGCTTT [A/C RNA/DNA duplex]”, in the series on AvaII (RNA strand cleaved, NEBuffer 4, 37 C, 4 h, label: 3'-Fam on RNA strand, DNA:RNA hybrid), the “activity on this sequence” value is reported as “active”.

For TAAAGGCGCGCCCGCATGCTTTA [H ssDNA], in the series with Cac8I (ssDNA not cleaved, label: 5'-FAM, single-stranded DNA), the “activity on this sequence” value was “not active”. As for “AAAGCTAAGCGGACCGAGTCGACTGCATCGTCATGAAAAAA (double strand) [B/D DNA duplex]”, in the series with AvaII (dsDNA cleaved, NEBuffer 4, 37 C, label: 3'-Fam on both strands), the “activity on this sequence” value was “active”.

Regarding “AAAGCUAAGCGGACCGAGUCGACUGCAUCGUCAUGAAAAAA / UUUUUUCAUGACGAUGCAGUCGACUCGGUCCGCUUAGCUUU [A/E RNA duplex]”, the “activity on this sequence” value with AvaII (dsRNA not cleaved, label: 3'-Fam on both strands) is given as “not active”. Consider “AAAGCUAAGCGGACCGAGUCGACUGCAUCGUCAUGAAAAAA [A ssRNA]”, for which the “activity on this sequence” value in the series with AvaII (ssRNA not cleaved, label: 3'-Fam) was “not active”. On to UAAAGCAUGCGGGCGCGCCUUUA [J ssRNA], for which the “activity on this sequence” value with Cac8I (ssRNA not cleaved, label: 5'-FAM) is given as “not active”.
